# Values joined by “and” are separate entries in the source; they are usually repeats but may differ in a detail not shown here. Equal values may be shown once. Where a name gives a salt, the structure may show the parent alone.
# Key:
# [1] = Phantom 19F MRS on 7-T MRI scanner; details: 7-T, 19F
# [2] = Circular dichroism wavelength scans; format: physicochemical; details: for θ208 / θ222: 15 μM, 4 °C
# [3] = Passive microrheology (multiple particle tracking); format: physicochemical; details: 2 mM, 4 °C
# Procedure: Microrheology. Protein was concentrated to 2 mM, as measured by BCA assay, and immediately aliquoted 27.7 μL into a 200 μL PCR tube. 1% v/v (or 0.3 μL) of […] red polystyrene fluorometric beads (FluoSpheres) were then added to the sample. A glass capillary tube was then loaded with sample by capillary action and sealed to prevent evaporation while being affixed to a microscopy slide using two-component fast-curing epoxy (JB Weld). Samples were then imaged at 0 h as a starting measurement and then every 12 h using a Leica DMI4000b inverted microscope equipped with a Leica DFC310 FX 1.4 megapixel camera at 40× magnification with 2×2 binning. Between imaging, slides were incubated on a rotisserie at 8 rpm to prevent sedimentation of the fluorometric beads. Each image series was recorded for a total of 300 frames with a lag time (i) of 0.037 s between each frame. Relaxation exponents i.e. the logarithmic slopes of particle mean-squared displacements (MSDs) with respect to lag time as determined by multiple particle tracking (MPT) analysis were used to determine when equilibration of the hydrogel was complete and measurements were no longer recorded (60 h in this case). Images were stacked and converted to grayscale in MATLAB (Mathworks, R2021a) using code developed in-house, with MPT then being employed using MATLAB code developed and modified by Dufresene, Kilfoil, Blair, and O'Neill as described previously.
# Gelation kinetics of the hydrogels were assessed using passive microrheology (FIG. 61a-e). Time to gelation was measured immediately after concentration to 2 mM at 4° C. by incubating with 1 μm fluorescent tracer beads added to the protein in solution state at a final concentration of 1% (v/v). […] Mean square displacements (MSDs) of bead trajectories were analyzed periodically per the span of respective protein gelation times. An initial MSD-τ curve corresponding to a solution at 1.00 μm^2 s^−1 (consistent with Brownian motion) was used as the master solution curve and the final MSD-τ curve measured per protein gelation was selected as the master gel curve. Intermediate MSD-τ curves measured were superimposed onto either the master solution or master gel curve using horizontal and vertical shift factors, a and b, respectively. The window of sol-gel transition was determined between where a divergence in superposition occurred for each protein gelation.
# Microrheology. Microrheology was used to assess gelation kinetics as described previously. Immediately after concentration to 2 mM, 29.7 uL were aliquoted with 0.3 uL of 1 um diameter FluoSpheres and loaded into glass capillary tubes (VitroCom). Samples were then imaged using an inverted fluorescent microscope (ZEISS Microscopy) at 40× magnification with 2×2 binning. Samples were incubated at 4° C. on a rotisserie at 8 rpm between measurements and imaged incrementally at select time points. […] Images were stacked, converted to greyscale, and analyzed with multiple particle tracking (MPT) in MATLAB (Mathworks, R2021a). Prior to other experiments of hydrogels in the gel state, microrheology here was used to confirm its complete transition.
# [4] = ATR-FTIR peak deconvolution of secondary structure; format: physicochemical; details: 2 mM
# Procedure: Attenuated Total Reflectance-Fourier Transform Infrared Spectroscopy. Secondary structure of protein fiber variants was confirmed using attenuated total reflectance-Fourier transform infrared (ATR-FTIR) spectroscopy using the Nicolet 6700 Fourier Transform Infrared Spectrometer equipped with a diamond ATR accessory and a mercury cadmium telluride (MCT)-A detector. Spectra were collected for 5 μL of 500 μM protein from 4000-400 cm^−1 with 0.5 cm^−1 increments at room temperature (RT). For CCM bound protein, protein was bound at a final concentration of 500 μM and saturated with CCM as determined by fluorescent spectroscopic drug binding with a final 1% v/v DMSO. Sample spectra were normalized using buffer background and analyzed from 1700-1600 cm^−1 corresponding to the amide I region. Peaks were deconvoluted using Gaussian functions in PeakFit software until the goodness of fit reached r^2≥0.99. Peaks were associated with secondary structure were determined by methods known in the art.
# (§1) Attenuated Total Reflectance-Fourier Transform Infrared Spectroscopy. Secondary structure of Q2 protein was confirmed using attenuated total reflectance-Fourier transform infrared (ATR-FTIR) spectroscopy using the Nicolet 6700 Fourier Transform Infrared Spectrometer equipped with a diamond ATR accessory and a mercury cadmium telluride (MCT)-A detector. Spectra were collected for 5 μL of 2 mM protein from 4000-400 cm^−1 with 0.5 cm^−1 increments. Sample spectra were normalized using buffer background and analyzed from 1700-1600 cm^−1 corresponding to the amide I region. Peaks were deconvoluted using Gaussian functions in PeakFit software until the goodness of fit reached r^2>0.99.
# as §1, with “of Q2LTF and QLTF” for “of Q2”, “using a” for “using the”, “of 1” for “of 2”, “with 4.0” for “with 0.5”, “reached r^2≥0.99.” for “reached r^2>0.99.”
# Attenuated Total Reflectance-Fourier Transform Infrared Spectroscopy. Secondary structure before (solution) and after gelation (gel) was also assessed by peak deconvolution of attenuated total reflectance-Fourier transform infrared (ATR-FTIR) spectra. ATR-FTIR measurements were performed using a Nicolet 6700 Fourier Transform Infrared Spectrometer equipped with a mercury cadmium telluride (MCT)-A detector. Spectra were collected for 5 μL samples of protein at 2 mM from 4000-400 cm^−1 with a 4.0 cm^−1 resolution, normalized, and buffer-subtracted prior to analysis from 1700-1600 cm^−1, corresponding to the amide I region. ATR-FTIR measurements were performed immediately after concentration to 2 mM for solution measurements and after. Peaks were deconvoluted using Gaussian functions in PeakFit software until the goodness of fit reached r^2≥0.99.
Molecule,concentration reaching limit of detection (LOD 5.3) [1] [µM],θ222/θ208 ([2]; Gel),θ208 ([2]; Gel),θ222 ([2]; Gel),θ208 ([2]; Solution),θ222 ([2]; Solution),MRE minimum at 208 nm ([2]; solution),MRE minimum at 222 nm ([2]; solution),θ222/θ208 ([2]; solution),"critical gelation time, tc (tgel) [3]","critical relaxation exponent, nc [3]",Turns/Coils (%) ([4]; Gel),α-helix (%) ([4]; Gel),β-sheet(%) ([4]; Gel),Turns/Coils (%) ([4]; Solution),α-helix (%) ([4]; Solution),β-sheet(%) ([4]; Solution)
"O=C(O)C(F)(F)F [TFA, trifluoroacetic acid, reference compound]",130,–,–,–,–,–,–,–,–,–,–,–,–,–,–,–,–
"Q5: Q hydrogel variant from Rosetta Monte Carlo search, SEQ ID NO: 14 (MRGSHHHHHHGSIEGRVKEITFIKKTIEQIAEEMKEINKAIHDIRHALENISKK) [Protein Q5]",–,1.6 ± 0.1,"−5,000 ± 1,000 mdeg · cm^2 · dmol^−1","−8,000 ± 2,000 mdeg · cm^2 · dmol^−1","−16,000 ± 2,000 mdeg · cm^2 · dmol^−1","−18,000 ± 1,000 mdeg · cm^2 · dmol^−1","−15,600±1,800 deg cm^2 dmol^−1","−18,300±1,000 deg cm^2 dmol^−1",1.2 ± 0.1,11.5 h and 11.5 ± 1.5 h,0.49±0.02,10.0 ± 8.7,41.2 ± 3.8,48.6 ± 6.3,16.1 ± 0.6,39.8 ± 0.7,44.2 ± 0.2

# Reference: patent US20240115742A1, “FLUORINATED FIBERS FOR MULTIMODAL 1H AND 19F MRI, ULTRASOUND, FLUORESCENCE DETECTION AND CONFORMATIONAL AND TEMPERATURE DETECTION BY 19F MRS” (New York University, priority 2022, published 2024)
